No constants are given. Whether binding was seen depends on the method and setting. In cells and extracts the contact can be indirect. A yes stands for co-enrichment or nearness to the bait. Other partners may have been found. Tags and fused reporters may be left off the sequences shown.
What follows are substances tested against T1, GST-14-3-3γ (UniProt P61981) (assay: affinity purification with mass spectrometry; GST-14-3-3γ as bait on lysates of 14-3-3γ-knockdown and vector-control cells; bands of differential intensity cut from a 6-12% gradient SDS-PAGE gel; MALDI-TOF/TOF; only the target purified).
T1 sequence: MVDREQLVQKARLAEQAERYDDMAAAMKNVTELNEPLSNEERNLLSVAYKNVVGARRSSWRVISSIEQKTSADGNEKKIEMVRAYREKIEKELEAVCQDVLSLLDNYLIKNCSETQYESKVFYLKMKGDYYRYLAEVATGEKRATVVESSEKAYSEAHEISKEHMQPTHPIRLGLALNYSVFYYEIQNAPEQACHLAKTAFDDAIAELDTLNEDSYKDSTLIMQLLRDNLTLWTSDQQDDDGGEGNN

Protein sequences, listed by entry. Tags and fused reporters are not part of them.
UniProt Q9BSJ2: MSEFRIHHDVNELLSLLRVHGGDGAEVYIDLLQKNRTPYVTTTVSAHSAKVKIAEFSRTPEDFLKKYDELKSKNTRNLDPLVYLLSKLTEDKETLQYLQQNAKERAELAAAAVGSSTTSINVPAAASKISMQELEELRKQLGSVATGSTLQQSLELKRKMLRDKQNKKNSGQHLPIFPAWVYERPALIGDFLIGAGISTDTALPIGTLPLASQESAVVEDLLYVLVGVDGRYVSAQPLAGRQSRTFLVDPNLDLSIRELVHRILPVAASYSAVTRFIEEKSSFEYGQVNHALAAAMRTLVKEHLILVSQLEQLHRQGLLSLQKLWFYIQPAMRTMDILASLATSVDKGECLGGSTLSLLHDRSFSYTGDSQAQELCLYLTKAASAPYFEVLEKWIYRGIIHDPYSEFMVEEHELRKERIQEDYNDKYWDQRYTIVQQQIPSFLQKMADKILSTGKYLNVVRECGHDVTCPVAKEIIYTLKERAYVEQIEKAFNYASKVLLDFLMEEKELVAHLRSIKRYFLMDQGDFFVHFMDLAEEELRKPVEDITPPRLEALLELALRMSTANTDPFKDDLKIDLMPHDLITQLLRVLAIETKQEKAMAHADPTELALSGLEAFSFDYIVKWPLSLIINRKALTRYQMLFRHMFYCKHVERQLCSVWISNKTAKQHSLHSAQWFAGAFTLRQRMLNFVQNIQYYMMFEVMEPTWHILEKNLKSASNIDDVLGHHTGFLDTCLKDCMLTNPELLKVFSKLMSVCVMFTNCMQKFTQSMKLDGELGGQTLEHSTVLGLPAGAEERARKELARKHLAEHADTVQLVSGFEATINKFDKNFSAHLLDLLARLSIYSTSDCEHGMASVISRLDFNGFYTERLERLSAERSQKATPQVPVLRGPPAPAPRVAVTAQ
UniProt P33176: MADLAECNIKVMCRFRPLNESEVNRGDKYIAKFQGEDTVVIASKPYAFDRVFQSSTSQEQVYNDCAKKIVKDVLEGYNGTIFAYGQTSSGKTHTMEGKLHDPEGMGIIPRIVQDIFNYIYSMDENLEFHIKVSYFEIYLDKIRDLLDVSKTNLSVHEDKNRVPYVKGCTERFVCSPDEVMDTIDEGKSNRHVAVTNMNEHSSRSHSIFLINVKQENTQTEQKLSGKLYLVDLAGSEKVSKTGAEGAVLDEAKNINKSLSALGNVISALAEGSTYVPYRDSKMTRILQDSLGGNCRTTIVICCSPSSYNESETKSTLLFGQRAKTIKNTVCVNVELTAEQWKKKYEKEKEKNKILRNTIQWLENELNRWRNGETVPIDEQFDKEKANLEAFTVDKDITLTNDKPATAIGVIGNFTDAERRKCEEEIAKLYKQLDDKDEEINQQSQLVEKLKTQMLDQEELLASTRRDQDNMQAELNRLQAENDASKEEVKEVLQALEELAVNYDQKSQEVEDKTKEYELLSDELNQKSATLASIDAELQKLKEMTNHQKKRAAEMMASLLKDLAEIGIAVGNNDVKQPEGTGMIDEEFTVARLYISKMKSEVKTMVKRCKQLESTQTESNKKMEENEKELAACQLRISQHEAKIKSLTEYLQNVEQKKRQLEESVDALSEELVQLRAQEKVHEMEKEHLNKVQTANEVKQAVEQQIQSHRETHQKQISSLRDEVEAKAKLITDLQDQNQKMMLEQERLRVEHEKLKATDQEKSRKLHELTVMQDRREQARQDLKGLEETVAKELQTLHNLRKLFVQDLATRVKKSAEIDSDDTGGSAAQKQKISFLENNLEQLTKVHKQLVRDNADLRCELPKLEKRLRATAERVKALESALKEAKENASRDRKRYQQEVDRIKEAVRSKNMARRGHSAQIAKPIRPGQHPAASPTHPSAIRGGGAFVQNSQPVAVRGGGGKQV
UniProt Q9H0B6: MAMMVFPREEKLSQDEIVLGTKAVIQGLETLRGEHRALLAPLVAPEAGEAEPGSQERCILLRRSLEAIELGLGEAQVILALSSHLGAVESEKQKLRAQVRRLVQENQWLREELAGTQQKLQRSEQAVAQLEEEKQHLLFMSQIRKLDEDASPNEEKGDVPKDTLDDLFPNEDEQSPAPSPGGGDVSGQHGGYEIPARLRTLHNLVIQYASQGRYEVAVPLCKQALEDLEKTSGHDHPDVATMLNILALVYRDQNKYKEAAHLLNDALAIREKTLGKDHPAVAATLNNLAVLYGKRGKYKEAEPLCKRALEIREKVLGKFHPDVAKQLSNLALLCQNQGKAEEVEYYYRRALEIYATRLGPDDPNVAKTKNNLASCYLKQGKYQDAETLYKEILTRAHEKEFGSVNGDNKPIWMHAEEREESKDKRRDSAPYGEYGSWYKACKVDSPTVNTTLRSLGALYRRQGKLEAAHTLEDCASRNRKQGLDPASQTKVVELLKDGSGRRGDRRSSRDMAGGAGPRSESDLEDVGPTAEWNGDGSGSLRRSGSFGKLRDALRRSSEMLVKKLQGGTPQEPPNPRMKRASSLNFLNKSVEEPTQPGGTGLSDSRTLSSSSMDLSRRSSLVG

binding	Substance
binds	GCP2 (from UniProt Q9BSJ2 1-902)
binds	KIF5B (from UniProt P33176 1-963)
binds	KLC2 (from UniProt Q9H0B6 1-622)
